Results on one molecule are retold here after patent US20080152653A1.

The target of this experiment is mouse α9 integrin (mouse). The experiment can be described thus: cell adhesion screening of transfected cells.

These are yes or no findings as the source states them, for the method shown. Binding calls can cover weak binding; strength is not graded here.

Take SVVYGLR [SVVYGLR peptide of human OPN]: the binding entry is “binds”.
